The other results are listed elsewhere or left out.

Sequences of proteins named here, by UniProt entry; tags and fusion partners are left off. A change or cut given only in a name is not applied to a line headed by its entry.
UniProt Q9NZ72: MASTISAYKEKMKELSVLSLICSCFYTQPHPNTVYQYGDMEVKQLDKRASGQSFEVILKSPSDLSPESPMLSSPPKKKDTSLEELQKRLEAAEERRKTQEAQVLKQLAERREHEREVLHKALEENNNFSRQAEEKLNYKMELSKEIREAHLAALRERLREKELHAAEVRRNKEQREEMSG
UniProt A2RTX5: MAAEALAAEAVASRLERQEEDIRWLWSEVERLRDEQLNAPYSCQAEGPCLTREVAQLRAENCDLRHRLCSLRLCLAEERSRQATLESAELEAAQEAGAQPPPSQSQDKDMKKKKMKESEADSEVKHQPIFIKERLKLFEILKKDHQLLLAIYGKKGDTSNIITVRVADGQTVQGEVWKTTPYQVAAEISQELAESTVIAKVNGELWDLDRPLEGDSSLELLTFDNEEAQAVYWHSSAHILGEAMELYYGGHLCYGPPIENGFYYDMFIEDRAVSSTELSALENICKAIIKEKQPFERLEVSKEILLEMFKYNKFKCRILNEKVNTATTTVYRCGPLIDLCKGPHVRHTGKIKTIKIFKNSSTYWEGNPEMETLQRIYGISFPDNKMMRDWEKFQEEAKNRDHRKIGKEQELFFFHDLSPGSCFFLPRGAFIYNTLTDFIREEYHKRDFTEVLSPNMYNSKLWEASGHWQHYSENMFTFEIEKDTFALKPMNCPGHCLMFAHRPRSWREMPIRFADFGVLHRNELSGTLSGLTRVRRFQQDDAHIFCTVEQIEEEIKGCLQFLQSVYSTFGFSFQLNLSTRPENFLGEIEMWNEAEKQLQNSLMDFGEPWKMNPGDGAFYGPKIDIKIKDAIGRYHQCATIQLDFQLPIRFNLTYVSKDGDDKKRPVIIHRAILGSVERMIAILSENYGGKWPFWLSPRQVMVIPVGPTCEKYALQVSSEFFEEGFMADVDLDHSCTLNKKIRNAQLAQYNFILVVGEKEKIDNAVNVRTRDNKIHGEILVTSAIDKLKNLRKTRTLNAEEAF
UniProt Q9UNE7: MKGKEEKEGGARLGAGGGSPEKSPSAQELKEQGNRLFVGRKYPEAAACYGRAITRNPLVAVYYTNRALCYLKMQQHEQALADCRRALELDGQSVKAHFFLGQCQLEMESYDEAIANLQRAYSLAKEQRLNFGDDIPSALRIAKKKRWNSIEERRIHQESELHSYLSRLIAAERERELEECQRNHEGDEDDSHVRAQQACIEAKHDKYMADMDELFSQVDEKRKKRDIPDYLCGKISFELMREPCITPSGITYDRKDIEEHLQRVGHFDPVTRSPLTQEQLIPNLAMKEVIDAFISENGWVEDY
UniProt Q6NXT6: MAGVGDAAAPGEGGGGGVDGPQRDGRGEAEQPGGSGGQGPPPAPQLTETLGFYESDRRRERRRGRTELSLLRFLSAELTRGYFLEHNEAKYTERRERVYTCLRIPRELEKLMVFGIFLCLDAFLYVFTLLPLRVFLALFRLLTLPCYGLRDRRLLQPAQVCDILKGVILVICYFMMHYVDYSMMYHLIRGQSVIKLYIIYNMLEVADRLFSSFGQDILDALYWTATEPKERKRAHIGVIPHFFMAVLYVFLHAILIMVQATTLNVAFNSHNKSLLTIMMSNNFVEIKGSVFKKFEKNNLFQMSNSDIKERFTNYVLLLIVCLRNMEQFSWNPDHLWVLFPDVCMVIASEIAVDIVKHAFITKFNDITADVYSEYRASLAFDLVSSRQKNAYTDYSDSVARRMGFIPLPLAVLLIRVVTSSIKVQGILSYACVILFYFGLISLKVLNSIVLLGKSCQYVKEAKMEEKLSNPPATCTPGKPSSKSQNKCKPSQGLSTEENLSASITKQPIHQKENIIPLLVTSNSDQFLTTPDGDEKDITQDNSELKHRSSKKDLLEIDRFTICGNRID
UniProt P61764, whole entry, looked up: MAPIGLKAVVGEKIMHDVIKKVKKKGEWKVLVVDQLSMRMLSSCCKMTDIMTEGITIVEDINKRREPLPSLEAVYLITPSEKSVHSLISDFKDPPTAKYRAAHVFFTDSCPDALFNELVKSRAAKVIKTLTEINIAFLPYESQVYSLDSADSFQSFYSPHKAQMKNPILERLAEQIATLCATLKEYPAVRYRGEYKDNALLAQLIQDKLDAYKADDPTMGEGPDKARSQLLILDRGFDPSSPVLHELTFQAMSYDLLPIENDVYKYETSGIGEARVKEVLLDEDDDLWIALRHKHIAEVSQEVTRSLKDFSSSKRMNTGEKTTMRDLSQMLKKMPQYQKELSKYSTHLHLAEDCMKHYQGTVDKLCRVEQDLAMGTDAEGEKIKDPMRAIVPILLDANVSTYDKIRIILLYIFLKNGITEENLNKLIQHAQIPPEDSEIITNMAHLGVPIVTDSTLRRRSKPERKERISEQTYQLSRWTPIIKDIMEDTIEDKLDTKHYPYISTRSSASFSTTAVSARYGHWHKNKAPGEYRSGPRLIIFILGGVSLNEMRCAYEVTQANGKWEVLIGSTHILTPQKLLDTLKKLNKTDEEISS
UniProt Q9NVG8: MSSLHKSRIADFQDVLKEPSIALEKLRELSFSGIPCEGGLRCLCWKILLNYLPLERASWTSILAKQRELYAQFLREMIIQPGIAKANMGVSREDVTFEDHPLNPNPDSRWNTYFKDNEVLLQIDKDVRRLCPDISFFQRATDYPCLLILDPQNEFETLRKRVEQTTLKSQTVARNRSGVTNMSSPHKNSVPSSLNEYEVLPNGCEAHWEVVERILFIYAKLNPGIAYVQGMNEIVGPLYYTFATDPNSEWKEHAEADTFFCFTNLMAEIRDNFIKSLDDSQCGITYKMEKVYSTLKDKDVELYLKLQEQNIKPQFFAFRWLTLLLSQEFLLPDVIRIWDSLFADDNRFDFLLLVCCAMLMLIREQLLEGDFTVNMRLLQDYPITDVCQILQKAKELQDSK
UniProt O00186: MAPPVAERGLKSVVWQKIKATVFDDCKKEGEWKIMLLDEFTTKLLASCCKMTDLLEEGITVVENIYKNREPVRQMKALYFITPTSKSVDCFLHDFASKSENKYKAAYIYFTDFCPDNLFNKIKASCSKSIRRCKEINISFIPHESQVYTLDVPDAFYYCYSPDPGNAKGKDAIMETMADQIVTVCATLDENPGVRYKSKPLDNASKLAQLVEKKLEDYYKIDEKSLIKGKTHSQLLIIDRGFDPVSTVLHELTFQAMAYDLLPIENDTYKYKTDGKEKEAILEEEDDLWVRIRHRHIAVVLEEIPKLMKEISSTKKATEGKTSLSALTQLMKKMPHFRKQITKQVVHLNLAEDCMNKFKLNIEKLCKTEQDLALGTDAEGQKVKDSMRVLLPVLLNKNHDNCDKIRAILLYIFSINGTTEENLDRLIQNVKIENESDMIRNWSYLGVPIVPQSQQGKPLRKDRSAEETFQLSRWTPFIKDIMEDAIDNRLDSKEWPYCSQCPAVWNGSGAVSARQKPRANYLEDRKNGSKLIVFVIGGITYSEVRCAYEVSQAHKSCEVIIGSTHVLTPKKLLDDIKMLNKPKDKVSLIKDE
UniProt P26639: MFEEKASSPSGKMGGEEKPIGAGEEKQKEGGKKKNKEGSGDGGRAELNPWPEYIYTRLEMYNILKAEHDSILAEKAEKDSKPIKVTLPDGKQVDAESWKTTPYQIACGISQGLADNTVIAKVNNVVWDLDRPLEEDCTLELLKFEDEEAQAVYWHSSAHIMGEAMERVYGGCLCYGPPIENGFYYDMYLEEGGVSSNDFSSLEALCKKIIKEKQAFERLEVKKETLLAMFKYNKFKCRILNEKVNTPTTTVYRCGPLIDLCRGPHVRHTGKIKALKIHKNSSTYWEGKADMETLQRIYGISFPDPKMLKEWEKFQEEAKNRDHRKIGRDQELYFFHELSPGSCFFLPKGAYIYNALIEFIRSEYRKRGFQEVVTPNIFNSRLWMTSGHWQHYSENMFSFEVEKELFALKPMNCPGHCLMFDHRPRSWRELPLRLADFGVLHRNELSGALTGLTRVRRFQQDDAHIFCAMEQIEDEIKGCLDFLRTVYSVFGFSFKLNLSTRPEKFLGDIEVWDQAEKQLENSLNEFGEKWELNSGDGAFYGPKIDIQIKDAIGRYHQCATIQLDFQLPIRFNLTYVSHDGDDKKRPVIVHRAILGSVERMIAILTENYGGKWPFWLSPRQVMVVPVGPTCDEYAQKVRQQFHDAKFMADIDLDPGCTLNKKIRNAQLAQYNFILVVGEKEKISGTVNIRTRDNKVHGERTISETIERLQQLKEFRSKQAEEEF
UniProt Q9Y2K9: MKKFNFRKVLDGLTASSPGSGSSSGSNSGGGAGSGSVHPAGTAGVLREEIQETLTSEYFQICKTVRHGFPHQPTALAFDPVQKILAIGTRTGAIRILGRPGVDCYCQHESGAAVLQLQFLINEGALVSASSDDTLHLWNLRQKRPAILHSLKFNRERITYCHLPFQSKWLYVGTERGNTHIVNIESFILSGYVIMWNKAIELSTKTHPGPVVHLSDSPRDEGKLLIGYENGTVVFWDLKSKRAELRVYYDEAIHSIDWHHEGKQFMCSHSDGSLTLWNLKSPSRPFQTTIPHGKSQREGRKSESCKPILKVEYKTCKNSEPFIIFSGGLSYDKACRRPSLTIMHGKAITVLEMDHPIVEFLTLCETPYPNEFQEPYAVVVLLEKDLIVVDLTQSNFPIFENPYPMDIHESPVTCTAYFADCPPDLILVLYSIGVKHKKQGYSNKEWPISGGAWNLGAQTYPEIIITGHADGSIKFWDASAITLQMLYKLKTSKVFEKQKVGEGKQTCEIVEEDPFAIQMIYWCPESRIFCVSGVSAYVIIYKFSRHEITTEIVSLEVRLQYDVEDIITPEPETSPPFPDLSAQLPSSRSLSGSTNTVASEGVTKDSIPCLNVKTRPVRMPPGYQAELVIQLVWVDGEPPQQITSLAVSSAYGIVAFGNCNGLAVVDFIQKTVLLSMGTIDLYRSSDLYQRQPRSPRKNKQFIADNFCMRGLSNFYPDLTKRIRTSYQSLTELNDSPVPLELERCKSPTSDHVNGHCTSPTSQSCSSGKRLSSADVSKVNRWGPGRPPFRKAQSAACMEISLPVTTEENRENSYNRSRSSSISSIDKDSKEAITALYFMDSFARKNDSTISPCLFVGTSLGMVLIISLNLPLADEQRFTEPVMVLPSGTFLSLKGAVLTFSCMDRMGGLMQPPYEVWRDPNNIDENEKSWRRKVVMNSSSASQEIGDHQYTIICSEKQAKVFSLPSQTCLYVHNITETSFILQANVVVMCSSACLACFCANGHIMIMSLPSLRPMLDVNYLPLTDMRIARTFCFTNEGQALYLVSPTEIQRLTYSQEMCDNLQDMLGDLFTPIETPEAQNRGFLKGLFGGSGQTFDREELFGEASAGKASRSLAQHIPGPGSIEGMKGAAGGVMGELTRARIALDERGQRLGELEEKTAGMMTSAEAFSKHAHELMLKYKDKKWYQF
UniProt O75529: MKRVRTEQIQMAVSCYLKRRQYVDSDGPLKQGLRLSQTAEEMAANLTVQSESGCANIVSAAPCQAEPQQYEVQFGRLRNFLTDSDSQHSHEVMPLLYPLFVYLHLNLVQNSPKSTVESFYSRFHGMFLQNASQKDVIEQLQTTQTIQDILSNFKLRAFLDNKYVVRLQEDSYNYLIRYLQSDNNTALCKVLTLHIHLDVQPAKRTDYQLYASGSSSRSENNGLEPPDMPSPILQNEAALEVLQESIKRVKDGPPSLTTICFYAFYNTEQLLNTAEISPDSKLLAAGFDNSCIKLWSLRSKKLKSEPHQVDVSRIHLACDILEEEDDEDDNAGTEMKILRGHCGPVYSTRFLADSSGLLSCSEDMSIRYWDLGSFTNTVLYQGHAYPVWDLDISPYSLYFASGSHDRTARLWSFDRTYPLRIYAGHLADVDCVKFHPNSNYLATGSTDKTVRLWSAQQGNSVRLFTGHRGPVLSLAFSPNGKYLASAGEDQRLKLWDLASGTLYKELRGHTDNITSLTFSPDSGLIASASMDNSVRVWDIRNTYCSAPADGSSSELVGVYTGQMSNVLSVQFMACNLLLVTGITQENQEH
UniProt Q9P2W9: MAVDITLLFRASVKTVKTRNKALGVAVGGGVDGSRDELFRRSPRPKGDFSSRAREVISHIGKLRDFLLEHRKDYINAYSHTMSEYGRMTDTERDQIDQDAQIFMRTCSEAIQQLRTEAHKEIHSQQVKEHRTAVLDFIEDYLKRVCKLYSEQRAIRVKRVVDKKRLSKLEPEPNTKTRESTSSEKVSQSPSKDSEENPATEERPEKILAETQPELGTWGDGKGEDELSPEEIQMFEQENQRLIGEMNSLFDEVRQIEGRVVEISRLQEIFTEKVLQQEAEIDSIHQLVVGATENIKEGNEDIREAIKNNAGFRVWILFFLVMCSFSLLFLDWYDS
UniProt Q6ICL3: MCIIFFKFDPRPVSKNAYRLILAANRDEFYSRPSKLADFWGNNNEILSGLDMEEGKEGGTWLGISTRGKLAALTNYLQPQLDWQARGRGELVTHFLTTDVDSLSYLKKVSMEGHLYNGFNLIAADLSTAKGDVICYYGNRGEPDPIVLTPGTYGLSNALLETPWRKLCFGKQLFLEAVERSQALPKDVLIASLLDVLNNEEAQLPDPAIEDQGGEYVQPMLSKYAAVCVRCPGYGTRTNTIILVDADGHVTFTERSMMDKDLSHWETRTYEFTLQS

Compound in this experiment: c1cn2cc(-c3ccc4cn[nH]c4c3)nc(Nc3ccc(N4CCOCC4)cc3)c2n1 [entospletinib]
In words: log2 fold change, soluble protein after heating vs DMSO (PISA); higher = thermal stabilisation; K562 cells, 10 uM, 30 min; active = over 0.2 and 3.5 SD of the protein, either way, in both replicates (recomputed). Put shortly:
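K562 cells at 2×10^6 cells/mL were given 10 μM compound for 30 min. Aliquots then went through 3 min of heating across 48°C-58°C, were pooled, and were extracted in PBS with 0.5% NP-40 at 4°C, and the supernatant after 21,000xg for 90 min was quantified by TMTpro 16plex LC-MS/MS with channel sums equalised. Thermal stability relative to control samples, from duplicates, is given as log2 fold change.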
In the case of TARBP2 (UniProt Q15633), the log2 fold change is inactive: 0.128. For the target SUGT1 isoform 2 (UniProt Q9Y2Z0), the log2 fold change was inactive: 0.102. Consider STMN3 (UniProt Q9NZ72), for which the log2 fold change was inactive: -0.003. In the case of TAF8 isoform 2 (UniProt Q7Z7C8), the log2 fold change is inactive: 0.053. In the case of TARSL2 (UniProt A2RTX5), the log2 fold change is inactive: 0.021. As for STT3B (UniProt Q8TCJ2), the figure is inactive: -0.016; as for STUB1 (UniProt Q9UNE7), inactive: 0.183; as for TAPT1 (UniProt Q6NXT6), inactive: -0.005. Consider STXBP1 (UniProt P61764), for which the log2 fold change is inactive: -0.043.

As to TAF15 (UniProt Q92804), the log2 fold change is inactive: 0.097. As for STRN3 (UniProt Q13033), the log2 fold change was inactive: 0.037.

Consider TBC1D13 (UniProt Q9NVG8), for which the log2 fold change is inactive: -0.012. As for STXBP3 (UniProt O00186), the figure is inactive: 0.059; as for SYVN1 (UniProt Q86TM6), inactive: -0.07; as for TARS1 (UniProt P26639), inactive: 0.001. Regarding TAF10 (UniProt Q12962), the log2 fold change is inactive: 0.012. Take SURF6 (UniProt O75683): the log2 fold change was inactive: 0.011. As for STXBP5L (UniProt Q9Y2K9), the log2 fold change is inactive: -0.038.

Turning to STT3A (UniProt P46977), the log2 fold change was inactive: -0.004. As for TAF5L (UniProt O75529), the log2 fold change was inactive: -0.057. Turning to SYNGR1 isoform 3 (UniProt O43759), the log2 fold change is inactive: 0. For the target STX10 (UniProt O60499), the log2 fold change was inactive: 0.194. As for TADA3 (UniProt O75528), the figure is inactive: 0.003.

STX18 (UniProt Q9P2W9): the log2 fold change is inactive: 0.001. Consider SUB1 (UniProt P53999), for which the log2 fold change is inactive: -0.007. With SURF4 (UniProt O15260), the log2 fold change is inactive: 0.011. Consider TANGO2 isoform 4 (UniProt Q6ICL3), for which the log2 fold change is inactive: -0.019. In the case of STS (UniProt P08842), the log2 fold change was inactive: -0.029. Turning to SYNJ2BP-COX16, A0A087WYV9, the log2 fold change was inactive: 0.062.

Values taken from the supplement of paper PMC10849652.
